From the supplement of paper PMC12819154, “High-throughput peptide-centric local stability assay extends protein–ligand identification to membrane proteins, tissues and bacteria” (Nature Structural & Molecular Biology, 2025)
The list shows a part of the results. Most values lie at the level of the controls, where differences are scatter.

Protein sequences, listed by entry. Tags and fused reporters are not part of them. Lines headed by an entry give the natural chain unless they say otherwise; changes in a name come on top.
UniProt Q8CDG3: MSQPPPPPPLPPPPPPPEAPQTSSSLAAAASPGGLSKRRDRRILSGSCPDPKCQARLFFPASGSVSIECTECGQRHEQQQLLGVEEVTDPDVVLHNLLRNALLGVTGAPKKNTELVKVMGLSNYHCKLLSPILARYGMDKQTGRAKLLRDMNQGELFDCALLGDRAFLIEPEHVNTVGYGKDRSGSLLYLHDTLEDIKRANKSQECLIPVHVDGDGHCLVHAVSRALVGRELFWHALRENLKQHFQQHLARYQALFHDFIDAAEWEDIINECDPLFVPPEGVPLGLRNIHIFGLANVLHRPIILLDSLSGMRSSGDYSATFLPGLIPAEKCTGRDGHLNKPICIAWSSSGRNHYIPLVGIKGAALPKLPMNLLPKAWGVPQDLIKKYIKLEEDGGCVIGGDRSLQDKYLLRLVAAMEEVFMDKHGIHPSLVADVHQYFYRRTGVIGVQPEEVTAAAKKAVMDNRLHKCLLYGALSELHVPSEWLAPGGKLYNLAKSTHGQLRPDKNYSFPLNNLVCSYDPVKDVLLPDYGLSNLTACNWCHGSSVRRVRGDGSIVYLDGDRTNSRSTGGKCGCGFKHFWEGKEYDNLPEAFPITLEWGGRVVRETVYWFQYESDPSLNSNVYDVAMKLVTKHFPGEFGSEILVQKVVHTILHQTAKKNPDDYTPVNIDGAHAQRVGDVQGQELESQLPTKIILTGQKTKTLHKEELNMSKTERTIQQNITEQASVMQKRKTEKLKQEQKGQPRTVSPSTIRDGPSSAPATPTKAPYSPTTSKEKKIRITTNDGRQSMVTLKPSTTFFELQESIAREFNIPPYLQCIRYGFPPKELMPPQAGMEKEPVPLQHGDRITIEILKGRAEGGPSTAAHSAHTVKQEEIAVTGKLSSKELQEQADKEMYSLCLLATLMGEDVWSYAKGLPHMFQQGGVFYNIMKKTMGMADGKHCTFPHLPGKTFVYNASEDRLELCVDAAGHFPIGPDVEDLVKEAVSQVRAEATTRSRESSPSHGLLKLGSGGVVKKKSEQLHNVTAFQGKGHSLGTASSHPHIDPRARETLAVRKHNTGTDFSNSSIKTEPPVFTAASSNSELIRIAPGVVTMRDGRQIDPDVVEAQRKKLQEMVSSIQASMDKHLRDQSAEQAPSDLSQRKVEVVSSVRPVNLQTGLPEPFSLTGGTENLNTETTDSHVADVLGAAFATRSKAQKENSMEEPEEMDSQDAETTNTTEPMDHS
UniProt Q8CIB6: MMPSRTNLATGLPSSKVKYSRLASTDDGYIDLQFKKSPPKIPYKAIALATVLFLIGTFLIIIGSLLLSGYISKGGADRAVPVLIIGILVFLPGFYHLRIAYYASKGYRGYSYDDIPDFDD
UniProt Q8CGA0: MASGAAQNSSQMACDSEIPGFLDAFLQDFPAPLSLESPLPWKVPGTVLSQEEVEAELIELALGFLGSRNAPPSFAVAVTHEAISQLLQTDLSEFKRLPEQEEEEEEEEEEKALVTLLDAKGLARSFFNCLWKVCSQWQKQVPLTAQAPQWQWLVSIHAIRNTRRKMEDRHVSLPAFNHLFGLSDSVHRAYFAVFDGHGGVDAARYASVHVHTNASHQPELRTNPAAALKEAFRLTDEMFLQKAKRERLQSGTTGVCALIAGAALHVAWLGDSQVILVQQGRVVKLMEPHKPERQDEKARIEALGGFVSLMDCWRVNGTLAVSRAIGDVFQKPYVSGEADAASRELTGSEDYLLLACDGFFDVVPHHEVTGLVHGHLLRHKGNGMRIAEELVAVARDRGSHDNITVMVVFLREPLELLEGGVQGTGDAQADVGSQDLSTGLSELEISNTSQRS
UniProt Q8CHG7: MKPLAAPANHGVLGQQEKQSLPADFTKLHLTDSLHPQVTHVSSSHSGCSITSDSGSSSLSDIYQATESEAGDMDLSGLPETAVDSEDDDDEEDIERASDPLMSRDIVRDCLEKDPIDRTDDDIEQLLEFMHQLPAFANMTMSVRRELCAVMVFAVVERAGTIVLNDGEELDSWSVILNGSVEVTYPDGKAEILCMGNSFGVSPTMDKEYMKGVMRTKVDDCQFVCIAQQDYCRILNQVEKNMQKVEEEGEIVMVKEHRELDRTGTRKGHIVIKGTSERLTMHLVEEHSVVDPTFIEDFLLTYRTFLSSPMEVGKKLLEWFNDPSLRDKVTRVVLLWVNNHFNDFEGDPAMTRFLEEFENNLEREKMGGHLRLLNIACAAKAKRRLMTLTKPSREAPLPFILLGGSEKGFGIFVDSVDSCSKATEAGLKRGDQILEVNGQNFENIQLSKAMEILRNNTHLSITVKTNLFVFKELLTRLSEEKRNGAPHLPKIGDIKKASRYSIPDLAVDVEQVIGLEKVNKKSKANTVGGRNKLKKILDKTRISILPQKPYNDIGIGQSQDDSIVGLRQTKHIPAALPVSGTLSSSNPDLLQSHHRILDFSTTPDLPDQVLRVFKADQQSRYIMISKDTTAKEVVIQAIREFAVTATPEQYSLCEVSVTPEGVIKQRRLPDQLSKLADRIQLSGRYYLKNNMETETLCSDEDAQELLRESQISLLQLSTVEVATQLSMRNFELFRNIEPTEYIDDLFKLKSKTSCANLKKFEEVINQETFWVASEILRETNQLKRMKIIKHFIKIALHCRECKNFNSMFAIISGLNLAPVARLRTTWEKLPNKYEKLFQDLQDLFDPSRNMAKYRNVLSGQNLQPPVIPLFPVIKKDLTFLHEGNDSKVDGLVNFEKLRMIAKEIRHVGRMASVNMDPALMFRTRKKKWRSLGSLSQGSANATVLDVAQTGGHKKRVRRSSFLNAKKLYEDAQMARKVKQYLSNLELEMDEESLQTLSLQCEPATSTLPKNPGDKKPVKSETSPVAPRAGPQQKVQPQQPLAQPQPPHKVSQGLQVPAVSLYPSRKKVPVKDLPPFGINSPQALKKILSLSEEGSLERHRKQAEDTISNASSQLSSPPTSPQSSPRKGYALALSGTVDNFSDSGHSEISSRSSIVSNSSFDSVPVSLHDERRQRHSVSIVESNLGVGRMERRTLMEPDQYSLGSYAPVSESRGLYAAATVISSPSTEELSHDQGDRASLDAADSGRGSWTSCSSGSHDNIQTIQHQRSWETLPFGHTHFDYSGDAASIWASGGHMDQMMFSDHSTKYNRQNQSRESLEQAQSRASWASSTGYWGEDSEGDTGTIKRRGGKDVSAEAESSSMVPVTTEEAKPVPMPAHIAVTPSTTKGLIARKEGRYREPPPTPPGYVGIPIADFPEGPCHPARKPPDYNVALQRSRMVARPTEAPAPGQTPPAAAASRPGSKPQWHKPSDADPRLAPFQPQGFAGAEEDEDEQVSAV
UniProt Q8CFK2: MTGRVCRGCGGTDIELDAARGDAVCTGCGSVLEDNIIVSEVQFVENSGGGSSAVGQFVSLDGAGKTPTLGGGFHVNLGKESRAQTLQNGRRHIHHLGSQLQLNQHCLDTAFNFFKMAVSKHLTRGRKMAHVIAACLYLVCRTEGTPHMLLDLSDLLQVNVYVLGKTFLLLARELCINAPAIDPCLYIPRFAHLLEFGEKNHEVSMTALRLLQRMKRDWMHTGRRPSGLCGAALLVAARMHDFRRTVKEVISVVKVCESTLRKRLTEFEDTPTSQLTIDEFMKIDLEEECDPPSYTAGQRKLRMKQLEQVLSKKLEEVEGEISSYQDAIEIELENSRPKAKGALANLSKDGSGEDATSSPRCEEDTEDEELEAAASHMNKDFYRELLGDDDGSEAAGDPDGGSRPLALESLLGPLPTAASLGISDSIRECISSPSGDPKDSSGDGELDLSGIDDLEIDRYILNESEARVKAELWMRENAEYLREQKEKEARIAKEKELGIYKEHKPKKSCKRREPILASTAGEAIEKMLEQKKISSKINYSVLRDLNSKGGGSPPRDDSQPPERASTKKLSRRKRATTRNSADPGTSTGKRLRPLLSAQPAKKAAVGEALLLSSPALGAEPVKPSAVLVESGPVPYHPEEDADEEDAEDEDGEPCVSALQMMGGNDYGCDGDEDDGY
UniProt Q8CFJ7: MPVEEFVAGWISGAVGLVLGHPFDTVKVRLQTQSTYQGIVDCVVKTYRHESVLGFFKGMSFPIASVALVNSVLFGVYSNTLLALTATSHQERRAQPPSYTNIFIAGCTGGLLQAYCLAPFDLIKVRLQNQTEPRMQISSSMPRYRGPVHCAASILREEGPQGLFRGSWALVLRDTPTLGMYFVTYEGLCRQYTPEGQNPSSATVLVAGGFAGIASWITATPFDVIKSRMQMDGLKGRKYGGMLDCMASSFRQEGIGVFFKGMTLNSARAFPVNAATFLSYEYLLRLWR
UniProt Q8CIC2: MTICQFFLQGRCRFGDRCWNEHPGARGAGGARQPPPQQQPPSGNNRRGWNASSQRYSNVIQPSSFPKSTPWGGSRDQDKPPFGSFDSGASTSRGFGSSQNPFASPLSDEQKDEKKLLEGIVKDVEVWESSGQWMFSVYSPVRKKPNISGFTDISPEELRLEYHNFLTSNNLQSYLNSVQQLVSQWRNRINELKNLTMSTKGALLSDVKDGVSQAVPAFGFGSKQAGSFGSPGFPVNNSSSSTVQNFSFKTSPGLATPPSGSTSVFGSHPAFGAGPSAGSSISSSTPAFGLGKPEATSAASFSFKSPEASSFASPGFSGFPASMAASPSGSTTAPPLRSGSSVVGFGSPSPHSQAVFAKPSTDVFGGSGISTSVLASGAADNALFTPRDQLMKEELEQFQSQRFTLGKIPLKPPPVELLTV
UniProt Q8K013: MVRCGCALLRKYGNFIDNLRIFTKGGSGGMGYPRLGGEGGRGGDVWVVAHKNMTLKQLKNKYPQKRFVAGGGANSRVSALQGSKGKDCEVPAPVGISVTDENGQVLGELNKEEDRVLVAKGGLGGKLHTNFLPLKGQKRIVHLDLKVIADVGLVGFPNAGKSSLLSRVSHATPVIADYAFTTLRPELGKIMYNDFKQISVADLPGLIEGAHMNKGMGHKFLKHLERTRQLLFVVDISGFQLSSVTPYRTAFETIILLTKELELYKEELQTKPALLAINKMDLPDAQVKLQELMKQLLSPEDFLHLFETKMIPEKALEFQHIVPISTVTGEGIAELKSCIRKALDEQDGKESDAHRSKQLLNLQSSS
UniProt Q8CBC7: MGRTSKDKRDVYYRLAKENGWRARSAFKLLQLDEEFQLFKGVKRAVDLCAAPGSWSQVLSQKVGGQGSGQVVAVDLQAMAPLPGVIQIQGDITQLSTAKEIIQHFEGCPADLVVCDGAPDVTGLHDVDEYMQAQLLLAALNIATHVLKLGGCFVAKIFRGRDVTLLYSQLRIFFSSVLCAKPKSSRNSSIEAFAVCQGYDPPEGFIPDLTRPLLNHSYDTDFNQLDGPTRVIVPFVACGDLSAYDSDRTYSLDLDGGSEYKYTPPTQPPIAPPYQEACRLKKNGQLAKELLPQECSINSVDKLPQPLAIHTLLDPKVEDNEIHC
UniProt Q8CHP5: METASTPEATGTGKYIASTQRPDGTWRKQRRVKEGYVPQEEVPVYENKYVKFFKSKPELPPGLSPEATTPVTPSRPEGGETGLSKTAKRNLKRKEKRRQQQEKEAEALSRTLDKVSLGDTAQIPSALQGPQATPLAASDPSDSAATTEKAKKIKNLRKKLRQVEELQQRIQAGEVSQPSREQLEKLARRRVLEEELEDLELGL
UniProt Q8CB77: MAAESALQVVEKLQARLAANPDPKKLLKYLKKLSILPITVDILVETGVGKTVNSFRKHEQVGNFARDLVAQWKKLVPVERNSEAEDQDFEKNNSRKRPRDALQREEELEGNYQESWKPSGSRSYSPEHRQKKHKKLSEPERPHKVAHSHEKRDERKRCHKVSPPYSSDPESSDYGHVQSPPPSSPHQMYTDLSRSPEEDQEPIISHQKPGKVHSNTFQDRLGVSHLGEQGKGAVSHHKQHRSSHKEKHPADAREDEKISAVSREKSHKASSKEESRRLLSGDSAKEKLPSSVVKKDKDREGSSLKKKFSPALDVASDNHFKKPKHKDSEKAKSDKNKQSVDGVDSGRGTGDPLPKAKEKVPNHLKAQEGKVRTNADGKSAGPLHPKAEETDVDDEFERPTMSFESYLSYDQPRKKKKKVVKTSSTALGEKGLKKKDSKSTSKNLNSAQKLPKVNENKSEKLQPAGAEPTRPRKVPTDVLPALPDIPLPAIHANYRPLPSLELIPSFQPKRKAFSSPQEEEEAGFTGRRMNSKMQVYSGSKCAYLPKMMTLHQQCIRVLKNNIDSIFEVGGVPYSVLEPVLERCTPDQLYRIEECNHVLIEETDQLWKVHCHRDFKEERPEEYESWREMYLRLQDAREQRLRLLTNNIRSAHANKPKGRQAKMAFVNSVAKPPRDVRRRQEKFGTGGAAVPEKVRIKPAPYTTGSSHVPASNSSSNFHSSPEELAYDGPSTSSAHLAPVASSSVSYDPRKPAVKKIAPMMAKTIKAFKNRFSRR
UniProt Q8K0Y7: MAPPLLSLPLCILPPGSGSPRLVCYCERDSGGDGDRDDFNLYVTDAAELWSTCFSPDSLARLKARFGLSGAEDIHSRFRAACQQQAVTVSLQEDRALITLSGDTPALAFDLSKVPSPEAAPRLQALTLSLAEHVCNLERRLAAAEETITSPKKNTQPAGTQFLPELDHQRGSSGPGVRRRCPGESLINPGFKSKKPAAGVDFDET

compound: CN[C@@H]1C[C@H]2O[C@@](C)([C@@H]1OC)n1c3ccccc3c3c4c(c5c6ccccc6n2c5c31)C(=O)NC4 [staurosporine]; experiment: log2 fold change of tryptic peptide abundance, ligand vs vehicle (limited proteolysis) (log2 ratio); higher = more trypsin-susceptible (destabilized); conditions: ligand concentration: 20 uM; sample: mouse liver crude lysate; replicate design: treated separately

Target	log2 fold change
UniProt Q8CD92 (peptide sequence: GKLQELFGR, peptide start residue: 696)	0.359
UniProt Q8K0U4 (peptide sequence: FHSFGYAAR, peptide start residue: 111)	0.24
UniProt Q8CFE5 (peptide sequence: SVYLPGQTSPK, peptide start residue: 986)	-0.186
UniProt Q8CHQ9 (peptide sequence: YLKKGPIPC, peptide start residue: 230)	-0.114
UniProt Q8K021 (peptide sequence: EREMQNLSQHGR, peptide start residue: 105)	0.211
UniProt Q8CDG3 (peptide sequence: AFLIEPEHVNTVGYGKDR, peptide start residue: 166)	-0.134
UniProt Q8CIB6 (peptide sequence: TNLATGLPSSK, peptide start residue: 6)	-0.0367
UniProt Q8CGA0 (peptide sequence: ALVTLLDAK, peptide start residue: 112)	0.552
UniProt Q8K0H7 (peptide sequence: VVVGEPPEAR, peptide start residue: 472)	-0.0555
UniProt Q8CIE4 (peptide sequence: SGGGPLEGLR, peptide start residue: 196)	-0.464
UniProt Q8CHG7 (peptide sequence: HSVSIVESNLGVGR, peptide start residue: 1174)	-0.293
UniProt Q8JZM0 (peptide sequence: DGPFVYGR, peptide start residue: 162)	0.254
UniProt Q8CFK2 (peptide sequence: QLEQVLSK, peptide start residue: 305)	-0.375
UniProt Q8CIK8 (peptide sequence: HSDIVVIYAR, peptide start residue: 337)	-0.151
UniProt Q8CFJ7 (peptide sequence: YRGPVHCAASILR, peptide start residue: 144)	-0.333
UniProt Q8JZX9 (peptide sequence: ELPDGLSPLLK, peptide start residue: 95)	-0.233
UniProt Q8CI59 (peptide sequence: EHYSSLCSLADQLAGK, peptide start residue: 94)	-0.207
UniProt Q8K0P3 (peptide sequence: LYNGMQR, peptide start residue: 64)	0.0688

An excerpt of these results, as a markdown table:

| Target | log2 fold change |
| --- | --- |
| UniProt Q8JZM0 (peptide sequence: DGPFVYGR, peptide start residue: 162) | 0.254 |
| UniProt Q8CFK2 (peptide sequence: QLEQVLSK, peptide start residue: 305) | -0.375 |

Continued:

Target	log2 fold change
UniProt Q8K0F1 (peptide sequence: NIIQGRPLPAELR, peptide start residue: 38)	-0.379
UniProt Q8CID3 (peptide sequence: QLRPGERPAACPCSGR, peptide start residue: 34)	0.379
UniProt Q8CIE2 (peptide sequence: SYVQQGVYGR, peptide start residue: 102)	-0.00686
UniProt Q8CHC8 (peptide sequence: GLGAVPLKR, peptide start residue: 1041)	-0.243
UniProt Q8CJF7 (peptide sequence: ENVGLPEESPR, peptide start residue: 1499)	0.129
UniProt Q8CBQ5 (peptide sequence: YALEKVPK, peptide start residue: 220)	0.155
UniProt Q8CGY8 (peptide sequence: LQEALMHYK, peptide start residue: 377)	0.205
UniProt Q8CIC2 (peptide sequence: DQDKPPFGSFDSGASTSR, peptide start residue: 76)	0.00141
UniProt Q8CG72 (peptide sequence: EAFDEVDMAHR, peptide start residue: 99)	-1.16
UniProt Q8CI43 (peptide sequence: AKAEPAAPQAPAK, peptide start residue: 33)	0.317
UniProt Q8K013 (peptide sequence: VSHATPVIADYAFTTLRPELGK, peptide start residue: 168)	-0.186
UniProt Q8CCJ9 (peptide sequence: KDQDQAVAEAERK, peptide start residue: 813)	0.893
UniProt Q8CBC7 (peptide sequence: VEDNEIHC, peptide start residue: 317)	0.0276
UniProt Q8CI11 (peptide sequence: YTVPEYK, peptide start residue: 348)	-0.151
UniProt Q8CE46 (peptide sequence: SFPGQHHSAGNPDSAITVR, peptide start residue: 262)	0.462
UniProt Q8CHP5 (peptide sequence: YIASTQRPDGTWRK, peptide start residue: 15)	-0.198
UniProt Q8CB77 (peptide sequence: LQPAGAEPTRPR, peptide start residue: 461)	0.107
UniProt Q8K0Y7 (peptide sequence: CPGESLINPGFK, peptide start residue: 181)	-0.425
